Source: article PMC12774541
Substitutions are numbered along the chain they refer to. These are yes or no findings as the source states them, for the method shown. In cells and extracts the contact can be indirect. Some entries that bind do so weakly or less than the wild type. For part of these data: Where a sequence is shown, tags or fusion partners need not be part of it.

Sequences of proteins named here, by UniProt entry; tags and fusion partners are left off.
UniProt Q15796: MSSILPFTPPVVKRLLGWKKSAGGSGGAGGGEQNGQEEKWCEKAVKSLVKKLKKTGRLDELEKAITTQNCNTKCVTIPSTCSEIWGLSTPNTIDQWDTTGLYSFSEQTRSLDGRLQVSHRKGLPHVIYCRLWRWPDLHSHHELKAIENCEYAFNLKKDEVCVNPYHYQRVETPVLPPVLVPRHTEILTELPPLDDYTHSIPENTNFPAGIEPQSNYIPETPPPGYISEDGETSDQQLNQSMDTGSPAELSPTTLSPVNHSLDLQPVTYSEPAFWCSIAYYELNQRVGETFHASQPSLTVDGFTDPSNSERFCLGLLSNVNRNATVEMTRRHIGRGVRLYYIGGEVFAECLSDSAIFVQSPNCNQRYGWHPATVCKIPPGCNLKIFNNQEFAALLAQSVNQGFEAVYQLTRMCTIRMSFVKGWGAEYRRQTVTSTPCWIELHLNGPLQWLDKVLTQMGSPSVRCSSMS

Legend:
Assay in all cases: co-IP; FLAG-KLC2-WT, R312W or L523I transiently expressed in HEK293T; lysis buffer 150 mM NaCl, 50 mM Tris-HCl pH 7.4, 0.5% NP-40 with protease and phosphatase inhibitors; 500-1000 ug lysate protein precipitated with anti-FLAG M2 affinity gel at 4°C overnight; immunoblot
[1] = target: FLAG-tagged KLC2-WT (kinesin light chain 2, wild type) (human) (UniProt Q9H0B6)
[2] = target: T1, FLAG-tagged KLC2-R312W (human) (UniProt Q9H0B6)
T1 sequence: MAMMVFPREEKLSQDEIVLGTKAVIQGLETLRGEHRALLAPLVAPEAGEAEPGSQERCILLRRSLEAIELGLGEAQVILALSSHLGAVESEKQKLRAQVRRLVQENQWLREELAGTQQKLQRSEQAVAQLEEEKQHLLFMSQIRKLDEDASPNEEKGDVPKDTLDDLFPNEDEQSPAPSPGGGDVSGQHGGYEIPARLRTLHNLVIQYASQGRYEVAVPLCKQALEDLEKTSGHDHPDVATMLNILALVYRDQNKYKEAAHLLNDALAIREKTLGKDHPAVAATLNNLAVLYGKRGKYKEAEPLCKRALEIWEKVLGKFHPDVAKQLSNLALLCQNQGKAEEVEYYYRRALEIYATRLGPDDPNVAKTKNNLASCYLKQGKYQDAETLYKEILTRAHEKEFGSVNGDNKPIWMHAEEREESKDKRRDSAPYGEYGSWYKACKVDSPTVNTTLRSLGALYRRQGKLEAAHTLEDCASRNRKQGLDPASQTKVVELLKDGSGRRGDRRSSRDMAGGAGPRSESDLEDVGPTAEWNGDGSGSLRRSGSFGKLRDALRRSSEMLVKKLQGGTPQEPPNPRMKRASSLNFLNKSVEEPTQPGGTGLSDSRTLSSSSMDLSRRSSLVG

[3] = target: T2, FLAG-tagged KLC2-L523I (human) (UniProt Q9H0B6)
T2 sequence: T1 sequence with W312R, L523I

- binding [1]: binds
- binding [2]: binds
- binding [3]: binds
Substance: mothers against decapentaplegic homolog 2 (SMAD2) (from UniProt Q15796 1-467)
